Measured values as given in PubChem BioAssay AID2517 (National Center for Advancing Translational Sciences (NCATS), 2010).
Several values for one entry are separate records, joined by “and”; a condition that tells them apart may be missing. Equal values may be shown once. Out of some 350,000 compounds screened, about 1,200 (0.34%) were called active. Inconclusive means that the source gave no clear call. Such entries were picked first, then a sample of the others. Calls follow the shape of the dose curve; as a rule, active = well fitted inhibition curve with a large enough effect; inconclusive = small, poorly fitted or top-dose-only effect; inactive = no such curve, though single readings can be large or run the other way. Potencies beside an inconclusive call are fits to weak or partial responses and may not hold up. Where a structure was tested more than once in an assay, its records may differ in their call.

Protein sequences, listed by entry. Tags and fused reporters are not part of them.
UniProt P27695, whole entry, looked up: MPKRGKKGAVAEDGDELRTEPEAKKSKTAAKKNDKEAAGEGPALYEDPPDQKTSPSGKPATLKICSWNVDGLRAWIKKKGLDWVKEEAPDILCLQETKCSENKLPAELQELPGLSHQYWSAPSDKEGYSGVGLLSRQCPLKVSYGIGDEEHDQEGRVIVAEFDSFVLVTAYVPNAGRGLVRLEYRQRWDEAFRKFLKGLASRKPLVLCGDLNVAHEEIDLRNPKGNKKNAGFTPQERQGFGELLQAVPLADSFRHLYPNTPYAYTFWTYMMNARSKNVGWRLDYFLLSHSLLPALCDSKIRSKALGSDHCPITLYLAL

Each compound was assayed against DNA repair nuclease/redox regulator APEX1 (Homo sapiens) (UniProt P27695) (assay: qHTS Assay for Inhibitors of the Human Apurinic/apyrimidinic Endonuclease 1 (APE1)). Conditions: recombinant APE1, TAMRA/BHQ-2 abasic DNA cleavage fluorescence; activity change, negative = inhibition: at 65.8 µM (top of the series).
Source text: The apurinic/apyrimidinic endonuclease APE1 is the primary mammalian enzyme responsible for the removal of abasic (or AP) sites in DNA and functions centrally in the base excision DNA repair (BER) pathway. […] Thus, targeting APE1 could improve the efficacy of current treatment paradigms by promoting selective sensitization or protection of diseased and normal cells, respectively.
Inhibition of APE1 activity was screened by utilizing double-stranded short substrate containing tetrahydrofuran (THF) abasic site labeled with rhodamine-type fluorophore (TAMRA) at the 5'-end and with non-fluorescent Black Hole Quencher-2 (BHQ-2) at the opposing 3'-end. An increase in the fluorescence intensity due to incision of the abasic site by APE1 was used to measure the enzyme activity.
NIH Chemical Genomics Center [NCGC]
NIH Molecular Libraries Probe Centers Network [MLPCN]
Assay Provider: David M. Wilson, III, National Institute on Aging, NIH
Three uL of enzyme solution (0.75 nM APE1 final concentration) was dispensed to 1536-well Greiner black solid bottom plates. […] The plates were incubated for 15 min at room temperature, and then 1 uL of substrate solution (50 nM final concentration of TAMRA/BHQ-2) was added to start the reaction. The plates were immediately transferred into ViewLux High-throughput CCD imager (Perkin-Elmer) in order to measure the reaction progress in kinetic mode (three reads every 60 seconds) using 525 nm excitation and 598 nm emission fluorescence protocol. The fluorescence intensity difference between the third and the first time points was used to compute reaction progress. Results were normalized to buffer only columns and NSC13755 positive controls and negative control DMSO treated wells.
Also: nearly all actives have a fitted effect of over 55% in size.
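For activity change, negative = inhibition in this document: plate controls were vehicle for no effect and reference inhibitor for full effect.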
Potency is read from the fitted curve at half-maximal effect.

| SMILES | Potency | activity change, negative = inhibition |
| --- | --- | --- |
| Nc1c(C(=O)NCc2ccco2)c2nc3ccccc3nc2n1CCN1CCCCC1 | inconclusive: 12.6 µM [inhibitor, partial curve] |  |
| C[C@@H]1C(=O)O[C@@H]2[C@H](O)C34[C@@H]5OC(=O)C3(O[C@H]3OC(=O)[C@H](O)C34[C@H](C(C)(C)C)[C@H]5O)[C@@]12O (stereo partly specified) | inconclusive: 8.91 µM [inhibitor, single point] |  |
| Cc1cccc(N2C(=O)NC(=O)/C(=C\c3ccc(N4CCOCC4)cc3)C2=O)c1 | inconclusive: 3.55 µM [inhibitor, single point] |  |
| COc1ccc(CC(=O)Nc2cc(Cl)ccc2C(=O)O)cc1 | inconclusive: 11.2 µM [inhibitor, partial curve] |  |
| CCCCC/C=C\C/C=C\C/C=C\C/C=C\CCCC(=O)N[C@H](C)CO | inactive and inconclusive: 39.8 µM [inhibitor, single point] |  |
| CC1=C(C(=O)O)N2C(=O)C(NC(=O)Cc3ccccc3)C2SC1 (stereo unspecified) |  | inactive: 4.8% |
| CN1C(=O)NC(=O)/C(=C\c2ccc([N+](=O)[O-])o2)C1=O | inconclusive: 39.8 µM [inhibitor, single point] |  |
| COc1cc(C=C2C(=O)NC(=O)NC2=O)ccc1OS(=O)(=O)c1ccccc1[N+](=O)[O-] |  | inactive: 16.5% |
| N[C@H](Cc1o[nH]c(=O)c1Cl)C(=O)O | inconclusive: 44.7 µM [inhibitor, single point] |  |
| O=C(Oc1ccccc1)N1CCC2(CC1)CN(C(c1ccccc1)c1ccccc1)C2 | inconclusive: 1.26 µM [inhibitor, full curve] |  |
| O=C1Nc2ccccc2C2(CCN(CCc3ccc(C(F)(F)F)cc3)CC2)O1 | inconclusive: 35.5 µM [inhibitor, single point] |  |
| CCN(CC)P(=O)(c1n(CC)cc[n+]1CC)N(CC)CC | inconclusive: 5.62 µM [inhibitor, partial curve] |  |
| CC(CCC(=O)O)C1CCC2C3CC[C@H]4CC(O)CC[C@@]4(C)C3CC[C@@]12C (stereo partly specified) | inconclusive: 3.98 µM [inhibitor, single point] |  |
| C[S@@](=O)CCCCN=C=S | inconclusive: 7.08 µM [inhibitor, single point] |  |
| CCCCCCCCOC(=O)c1ccccc1C(=O)OCCCCCCCC |  | inactive: 4.11% |
| O=c1[nH]c(=S)[nH]c(O)c1N=Nc1ccc(S(=O)(=O)N2CCc3ccccc32)cc1 |  | inactive: 17% |
| Cc1cc(C=C2C(=O)NC(=O)NC2=O)c(C)n1-c1ccc2c(c1)OCO2 |  | inactive: -0.219% |
| BrCC(Br)(Br)Br | inconclusive: 8.91 µM [inhibitor, full curve, poor fit] |  |
| Cc1ccc(N2C(=O)NC(=O)/C(=C\C=C\c3ccco3)C2=O)cc1 | inconclusive: 39.8 µM [inhibitor, single point] |  |
| O=C1NC(=S)N(c2ccc(F)cc2)C(=O)/C1=C\c1ccoc1 | inconclusive: 3.16 µM [inhibitor, single point] |  |

| SMILES | Potency | activity change, negative = inhibition |
| --- | --- | --- |
| CC(C)n1c(=O)c(C=Nc2ccc(Br)cc2)c(O)n(Cc2ccco2)c1=O | inconclusive: 31.6 µM [inhibitor, single point] |  |
| CCCN(CCC)C1Cc2cc(OC)c(OC)cc2C1 | inconclusive: 35.5 µM [inhibitor, partial curve] |  |
| CCOC(=O)c1ccc2[nH]c(-c3ccc(S(=O)(=O)F)cc3)cc(=O)c2c1 | inconclusive: 18.9 µM [inhibitor, partial curve] |  |
| Cc1ccc(N2C(=O)NC(=O)/C(=C\c3ccc([N+](=O)[O-])o3)C2=O)cc1 | inconclusive: 39.8 µM [inhibitor, partial curve, poor fit] |  |
| CCOP(=O)(OCC)C(Nc1cccc([N+](=O)[O-])c1)c1ccc(OC)cc1 (stereo unspecified) | inconclusive: 39.8 µM [inhibitor, single point] |  |
| O=C1NC(=O)C(=C/C=C/c2coc3ccc(Br)cc3c2=O)C(=O)N1 | inconclusive: 44.7 µM [inhibitor, single point] |  |
| CNc1ccc2oc(C[C@H]3O[C@]4(CC[C@H]3C)O[C@H]([C@H](C)C(=O)c3ccc[nH]3)[C@H](C)C[C@H]4C)nc2c1C(=O)O | inconclusive: 39.8 µM [inhibitor, partial curve, poor fit] |  |
| NCC(O)c1ccc(O)cc1 (stereo unspecified) | inconclusive: 14.1 µM [inhibitor, partial curve, poor fit] |  |
| CSCC[C@H](NC(=O)[C@H](Cc1ccccc1)NC(=O)CNC(=O)CNC(=O)[C@@H](N)Cc1ccc(O)cc1)C(=O)O |  | inactive: -0.895% |
| NCC#Cc1ccccc1 |  | inactive: -0.54% |
| CC(=O)[O-].CC(=O)[O-].CC(=O)[O-].[Cr+3] |  | inactive: 0.264% |
| Nc1nc(/C(=C/CC(=O)O)C(=O)N[C@@H]2C(=O)N3C(C(=O)O)=CCS[C@H]23)cs1 | inconclusive: 22.4 µM [inhibitor, partial curve] |  |
| O=C(CN1C(=O)C2(OCCO2)c2ccccc21)c1ccc(Cl)cc1 | inconclusive: 0.126 µM [inhibitor, full curve] |  |
| CN[C@H]1C[C@H]2O[C@@](C)([C@H]1OC)n1c3ccccc3c3c4c(c5c6ccccc6n2c5c31)C(=O)NC4 | inconclusive: 44.7 µM [inhibitor, single point] |  |
| C1=C(c2c[nH]c3ccccc23)CCN(Cc2ccccc2)C1 | inconclusive: 0.316 µM [inhibitor, full curve, poor fit] |  |
| COc1cc2c(cc1O)C[C@H]1c3c(cc(OC)c(O)c3-2)CCN1C | inconclusive: 31.6 µM [inhibitor, partial curve] |  |
| Cc1cccc(N2C(=O)NC(=O)/C(=C\C=C\c3ccco3)C2=O)c1 | inconclusive: 31.6 µM [inhibitor, single point] |  |
| C=C(C)C#N |  | inactive: -2.51% |
| COC(=O)C1=C(c2ccc(Cl)c(C(F)(F)F)c2)C[C@@H]2CC[C@H]1N2C(=O)N1CCC(C)CC1 | inconclusive: 26.7 µM [inhibitor, single point] |  |
| CNCCc1c(C)n[nH]c1C | inconclusive: 39.8 µM [inhibitor, single point] |  |
| CCCN(CCC)[C@H]1CCc2c(F)ccc(O)c2C1 | inconclusive: 39.8 µM [inhibitor, single point] |  |

| SMILES | Potency | activity change, negative = inhibition |
| --- | --- | --- |
| CCN1CCN(Cc2cccc(Oc3ccccc3)c2)CC1 | inconclusive: 3.16 µM [inhibitor, single point] |  |
| CCOCCCN=Cc1c(O)n(Cc2ccccc2)c(=O)[nH]c1=O | inconclusive: 7.94 µM [inhibitor, single point] |  |
| CCOc1cccc(OCC)c2c(C)[n+](CC3CCCO3)c(C)c1-2 (stereo unspecified) | inconclusive: 25.1 µM [inhibitor, single point] |  |
| O=C1CC(N2CC=C(c3ccc(F)cc3)CC2)C(=O)N1c1ccc(F)cc1 (stereo unspecified) |  | inactive: -4.1% |
| CC(=O)c1ccc2c(c1)C1C(Cl)C(Sc3ccccc3[N+](=O)[O-])CC1C(C(=O)O)N2 (stereo unspecified) | inconclusive: 15.8 µM [inhibitor, partial curve] |  |
| Cc1cccc(NC(=O)N2CCCC2)c1 | inconclusive: 15.8 µM [inhibitor, single point] |  |
| CCOP(=O)(OCC)c1ccc(O)cc1 | inconclusive: 0.0631 µM [inhibitor, full curve, poor fit] |  |
| CCN1C(=O)C(=C/C=C/c2ccco2)C(=O)N(CC)C1=S | inconclusive: 39.8 µM [inhibitor, single point] |  |
| CO[C@H]1C=C2CCN(C)[C@@H]2[C@@H]2c3cc4c(cc3C(=O)O[C@H]21)OCO4 | inconclusive: 14.1 µM [inhibitor, partial curve] |  |
| CCCCn1c(N)c(C(=O)OCC2CCCO2)c2nc3ccccc3nc21 (stereo unspecified) |  | inactive: -9.84% |
| CC(N)[C@@H](O)c1ccccc1 (stereo partly specified) | inconclusive: 39.8 µM [inhibitor, single point] |  |
| C[C@H](CCC(=O)O)[C@H]1CC[C@@H]2[C@H]3CC[C@H]4C[C@@H](O)CC[C@@]4(C)[C@H]3CC[C@]21C | inconclusive: 11.2 µM [inhibitor, partial curve, poor fit] |  |
| CCCCOC(=O)C1=C(N)OC2=C(C(=O)CC(C)(C)C2)[C@]12C(=O)N(C)c1ccccc12 |  | inactive: 0.206% |
| COc1ccc(CN2CCN(Cc3ccccc3F)CC2)cc1 | inconclusive: 37.7 µM [inhibitor, single point] |  |
| C[C@@H]1CC[C@@]2(OC1)O[C@H]1[C@@H](O)[C@H]3[C@@H]4CC[C@H]5C[C@@H](O[C@@H]6O[C@H](CO)[C@H](O[C@@H]7O[C@H](CO)[C@@H](O)[C@H](O[C@@H]8OC[C@@H](O)[C@H](O)[C@H]8O)[C@H]7O[C@@H]7O[C@H](CO)[C@@H](O)[C@H](O[C@@H]8O[C@H](CO)[C@@H](O)[C@H](O)[C@H]8O)[C@H]7O)[C@H](O)[C@H]6O)[C@H](O)C[C@]5(C)[C@H]4CC[C@]3(C)[C@H]1[C@@H]2C |  | inactive: 14% |
| O=c1oc2ccccc2c(O)c1[C@H]1c2ccc(O)cc2Oc2c1c(=O)oc1ccccc21 |  | inactive: 12.3% |
| CC1(C)C(O)CC(O)[C@]2(C)C1CC(=O)[C@]1(C)C2CC[C@@]2(C)C(c3ccoc3)OC(=O)C3OC321 (stereo partly specified) | inconclusive: 0.0112 µM [inhibitor, full curve, poor fit] |  |
| CC(C)[C@@]1(NC(=O)[C@@H]2C=C3c4cccc5[nH]cc(c45)C[C@H]3N(C)C2)O[C@@]2(O)[C@@H]3CCCN3C(=O)[C@H](Cc3ccccc3)N2C1=O | inconclusive: 1.12 µM [inhibitor, full curve] |  |
| O=C1NC(=S)N(c2ccc(Cl)cc2)C(=O)/C1=C/N1CCN(C(=O)c2ccco2)CC1 |  | inactive: -5.69% |

For reference, some entries already given:

| SMILES | Potency | activity change, negative = inhibition |
| --- | --- | --- |
| CCN1C(=O)C(=C/C=C/c2ccco2)C(=O)N(CC)C1=S | inconclusive: 39.8 µM [inhibitor, single point] |  |
| CO[C@H]1C=C2CCN(C)[C@@H]2[C@@H]2c3cc4c(cc3C(=O)O[C@H]21)OCO4 | inconclusive: 14.1 µM [inhibitor, partial curve] |  |
